{"source": "paper PMC5333395", "about": "“Assessing histone demethylase inhibitors in cells: lessons learned” (Epigenetics & Chromatin, 2017)", "system": "Caco-2 human colon carcinoma cell line", "experiment": "Caco-2 permeability", "conditions": "P app", "note": "Certain results were filed several times, with different values. This list holds those alone. The source may hold further records. Values given together differ for a reason that is not stated; dose, time, organism, isomer or construct need not be as stated for each record.", "data": [{"smiles": "CCN(CCN(C)C)C(=O)CNCc1cc(C(=O)O)ccn1", "note": "[KDOAM-20]", "values": [{"measurement": "Caco-2 (A to B flux)", "value": "low cell permeability and <0.76 x10-6 cm/s"}]}]}
